The assay can be described thus: qHTS Assay to Find Inhibitors of Chronic Active B-Cell Receptor Signaling. The conditions noted are these: ABC-DLBCL IkBa-CBG/CBR reporter, luminescence ratio (green luciferase fused to IkBa over red control in TMD8 lymphoma cells), 4 h. In short, it runs like this:
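Compounds up to 46 uM were incubated four hours with TMD8 cells whose green CBG68 luciferase is fused to IkappaBalpha; red CBR luminescence normalised the signal, and concentration-effect curves were fitted to fusion, red and ratio data.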
On the technique in general: qHTS replaces the single test concentration by a dilution series.

[1] abbreviates: measured here: CBR red luminescence, cell number.
Where [2] appears, read: measured here: IkBa-CBG green luminescence.

Structures are written as SMILES. Some of the results follow. These are further read-outs of the screen, such as a control signal, another cell line or another target. No call is given for them. The list favours compounds with an active or inconclusive main result. Words in brackets tell the shape of the fitted curve; partial curves, single points and poor fits give uncertain potencies.

Usually AC50 stands for the concentration giving half of the maximal activity seen. For the compound `O=C(O)/C(=C\c1ccccc1OC(F)F)Sc1nnc(-c2ccc(F)cc2)o1`, under setting [1], the AC50 was 7.94 µM [falling, partial curve, poor fit].

For `CCOCCCNC(=O)c1cc2c(s1)-c1ccccc1SC2`, under setting [1], the AC50 is 12.6 µM [falling, single point]. For the compound `N/C(=N\OC(=O)Nc1ccc(Cl)cc1)c1ncc(C(F)(F)F)cc1Cl`, the AC50 under setting [1] is 0.651 µM [rising, full curve, poor fit]. Still for that read-out and setting: the figure for `Cc1ccc2nc(-c3cccc(N)c3)[nH]c2c1` is 10.3 µM [falling, partial curve]. On the same count and under the same terms, the figure for `COc1ccc(/C=C/C(=O)c2ccc3c4c(cccc24)CC3)cc1OC` is 9.2 µM [falling, partial curve]. On the same count and under the same terms, to `N=c1c2c(-c3ccccc3)c(-c3ccccc3)n(Cc3ccccc3)c2ncn1CCCn1ccnc1` belongs 5.62 µM [falling, full curve, poor fit]. As to `COc1ccc(CCNC(=O)CCNC(=O)N2CC(=O)Nc3ccccc32)cc1OC`, under setting [1], the AC50 was 3.16 µM [rising, single point]. Still for that read-out and setting: to `O=C(O)CC1(CC(=O)Nc2ccc3ccccc3n2)CCCCC1` belongs 15.8 µM [falling, single point]; to `CC(C)c1ccc(/C=C2\NC(=O)NC2=O)cc1`, 6.31 µM [rising, full curve, poor fit]. For the compound `COc1ccc(OC)c(S(=O)(=O)NCC(c2ccco2)S(=O)(=O)c2ccccc2)c1` (stereo not given), under setting [1], the AC50 was 0.562 µM [falling, full curve, poor fit].

For `O=C(Nc1nc(-c2ccc3ccccc3c2)cs1)c1ccc(N2C(=O)CCC2=O)cc1`, the concentration at half-maximal activity (AC50) under setting [1] was 0.517 µM [rising, full curve, poor fit]. Same read-out and setting: the figure for `CCOC(=O)CN1C(=O)C(CC)Oc2ccc(Cl)cc21` (stereo not given) is 1.58 µM [rising, partial curve, poor fit].

For the compound `CC1=C(C(=O)OCc2ccccc2)C(c2cccc([N+](=O)[O-])c2)NC(=O)N1` (stereo not given), the concentration at half-maximal activity (AC50) under setting [1] was 7.94 µM [falling, partial curve, poor fit]. Turning to `Cc1cc(NC(=O)CSc2nc3ccccc3c(=O)n2CCCC(=O)NCc2ccco2)n[nH]1`, the AC50 under setting [1] was 35.5 µM [falling, single point]. `CCCCn1c(=N)n(CC(=O)c2ccc(Br)s2)c2ccccc21`: the AC50 under setting [1] was 7.94 µM [falling, partial curve]. The same measure, in the same setting: to `Clc1ccc(-n2ncc3c(NCCCn4ccnc4)ncnc32)cc1` belongs 3.26 µM [falling, single point]; to `O=C(Nc1cccc(C(F)(F)F)c1)C1CCCO1` (stereo not given), 12.6 µM [rising, single point]; to `CCOC(=O)C1=C(C)NC(=S)NC1c1ccc(-c2cccc(Cl)c2C)o1` (stereo not given), 10 µM [falling, partial curve, poor fit].

As for `C=C(C)COc1ccc(-c2[nH]ncc2Oc2ccc(OC)cc2)c(O)c1`, the AC50 under setting [1] was 6.31 µM [rising, full curve, poor fit]. Still for that read-out and setting: to `O=C(CCc1ccccc1)Nc1cc(C(F)(F)F)ccc1Cl` belongs 3.55 µM [rising, partial curve, poor fit]; to `O=C(Nc1nnc(Cc2ccccc2F)s1)Nc1ccccc1F`, 0.316 µM [rising, full curve].

With `COc1ccc(NC(=O)C(=O)NCCCO)cc1Cl`, the half-maximal activity concentration (AC50) under setting [1] is 1.41 µM [rising, partial curve, poor fit]. The same measure, in the same setting: to `C=CCOc1ccc(C(=O)NC2CCCCC2)cc1` belongs 7.31 µM [falling, partial curve]; to `CC(C)Cn1c(SCC(=O)Nc2cccc(S(N)(=O)=O)c2)nc2ccccc2c1=O`, 17.8 µM [falling, partial curve, poor fit]; to `CCCn1c(=S)[nH]c2ccc(C(F)(F)F)cc21`, 22.4 µM [falling, single point].

With `Cc1nc2ccc(NC(=O)Cc3c(F)cccc3Cl)cc2s1`, the concentration at half-maximal activity (AC50) under setting [1] is 15.8 µM [falling, single point].

For `Cc1ccc(NS(=O)(=O)c2ccc(Cl)c(NC(=S)NC(=O)C3CCCCC3)c2)cc1Cl`, under setting [1], the concentration at half-maximal activity (AC50) is 23.1 µM [falling, single point].

Consider `O=C(CCCN1C(=O)/C(=C/c2ccccc2OC(F)F)SC1=S)Nc1cccnc1`, for which the concentration at half-maximal activity (AC50) under setting [1] is 14.6 µM [falling, partial curve] and the AC50 under setting [2] is 5.17 µM [falling, partial curve, poor fit]. For the compound `COc1ccccc1-c1nnc(NC(=O)CCS(=O)(=O)c2ccccc2)o1`, the AC50 under setting [1] is 11.2 µM [falling, single point]. In the case of `O=C1CN(C(=O)CSc2nc3ccccc3c(=O)n2Cc2ccc(F)cc2)c2ccccc2N1`, the concentration at half-maximal activity (AC50) under setting [1] was 25.9 µM [falling, partial curve].

Consider `O=C(Nc1cnn(Cc2ccc(F)cc2)c1)c1cc(-c2cccs2)on1`, for which the AC50 under setting [1] is 32.6 µM [rising, single point]. On the same count and under the same terms, to `C/C(=N/NC(=O)c1cc(C(C)C)[nH]n1)c1cccs1` belongs 12.6 µM [falling, partial curve]; to `CCCCCNc1nc2ccccc2nc1NS(=O)(=O)c1cccs1`, 1.03 µM [rising, full curve, poor fit]; to `O=C(NCCc1ccc(Cl)cc1)c1ccc2c(c1)OCO2`, 20 µM [falling, partial curve, poor fit]. As for `CC(=O)[C@@]1(O)CC[C@H]2[C@@H]3CCC4=CC(=O)CC[C@]4(C)[C@H]3[C@@H](O)C[C@@]21C`, under setting [1], the AC50 was 0.282 µM [rising, full curve, poor fit]. For the compound `O=C(CCl)Nc1cn(-c2ccccc2)nc1-c1ccc(F)cc1`, the half-maximal activity concentration (AC50) under setting [1] is 11.2 µM [falling, partial curve]. Still for that read-out and setting: to `CN(CC(=O)Nc1nc2ccccc2s1)S(=O)(=O)c1ccc(Cl)cc1` belongs 3.66 µM [rising, partial curve, poor fit]; to `O=C(Cc1ccc(F)cc1)Nc1cccc2cccnc12`, 2.06 µM [rising, partial curve, poor fit]. Take `COC(=O)c1cccc(NC(=O)Nc2ccc(Cl)c(Cl)c2)c1`: the AC50 under setting [1] was 35.5 µM [falling, single point]. Turning to `COCCNS(=O)(=O)c1cccn1-c1ncc(C(F)(F)F)cc1Cl`, the AC50 under setting [1] was 0.651 µM [rising, partial curve, poor fit]. On the same count and under the same terms, to `COCC(=O)Nc1ccc2nc3n(c(=O)c2c1)CCCCC3` belongs 31.6 µM [rising, single point].

Turning to `CCCC(=O)Nn1cnc2c(c1=O)C1(CCCCC1)Cc1ccccc1-2`, the concentration at half-maximal activity (AC50) under setting [1] is 23.1 µM [falling, single point]. On the same count and under the same terms, the figure for `O=C(NCCc1csc(-c2cccnc2)n1)c1ccc(Br)o1` is 13 µM [falling, partial curve, poor fit]. With `CCCCCCNC(=O)N[C@H](C(=O)NCCC[C@H]1CN2C(=NC[C@H]2C)N1CCC(c1ccccc1)c1ccccc1)C(C)O` (stereo not given in full), the concentration at half-maximal activity (AC50) under setting [2] was 15.8 µM [falling, single point]. As for `COCCCNCCCCOc1ccccc1-c1ccccc1`, the AC50 under setting [1] was 13 µM [falling, partial curve]. Still for that read-out and setting: the figure for `CC(C)(C)NC(=S)Nc1ccc(Br)cc1` is 4.47 µM [rising, full curve, poor fit]; for `CCC1=NN2C(=N)/C(=C\c3cccn3-c3ccc(C)cc3C)C(=O)N=C2S1` it is 35.5 µM [falling, single point]; for `CCCNC(=O)/C=C/c1ccc(C(C)C)cc1` it is 5.17 µM [rising, full curve]. In the case of `Cc1c(CCC(=O)O)c(=O)oc2cc(OCc3ccccc3Br)ccc12`, the AC50 under setting [1] was 25.1 µM [falling, single point]. Take `N#CC1(NC(=O)COC(=O)c2ccccc2SCC(=O)N2CCCC2)CCCCC1`: under setting [1], the half-maximal activity concentration (AC50) was 35.5 µM [rising, single point]. Still for that read-out and setting: to `COc1ccc(OC)c(-n2c(N)c(C(=O)NCC3CCCO3)c3nc4ccccc4nc32)c1` (stereo not given) belongs 29.1 µM [falling, single point]; to `O=C(Nc1cccnc1)c1cc(-c2ccc(Cl)cc2)on1`, 4.47 µM [falling, partial curve].

Turning to `Cn1cccc1C(=O)C(=O)Nc1ccc(F)c(F)c1`, the AC50 under setting [1] was 15.8 µM [falling, partial curve].

As for `O=C(Cn1cccc1C(=O)c1ccccc1)NCc1ccccc1Cl`, the AC50 under setting [1] is 1.58 µM [falling, partial curve, poor fit].

In the case of `Cc1ccc(C2(C)NC(=O)N(CC(=O)NC(=O)NC3CCCC3)C2=O)cc1` (stereo not given), the AC50 under setting [1] was 6.51 µM [rising, partial curve, poor fit]. Regarding `COc1ccccc1N(CC(=O)NC1CCCC1)C(=O)CCC(=O)Nc1ccccn1`, the AC50 under setting [1] was 0.158 µM [falling, partial curve, poor fit]. For `COCCCN1C(=O)c2ccc(C(=O)Nc3ccc(C)cc3C)cc2C1=O`, under setting [1], the AC50 was 14.1 µM [falling, single point].

In the case of `O=C(CCOc1ccccc1)Nc1nnc(-c2ccc3c(c2)OCCO3)o1`, the half-maximal activity concentration (AC50) under setting [1] was 35.5 µM [falling, single point]. Same read-out and setting: to `CCOC(=O)CSC1=C(C#N)C(=O)NC(c2ccc(OC)cc2)S1` (stereo not given) belongs 0.517 µM [falling, partial curve, poor fit]; to `C=CCn1c(=NC(=O)c2cccs2)sc2cccc(OC)c21`, 1.41 µM [falling, full curve, poor fit]. The same measure, in the same setting: to `COc1ccc(-c2ccc(-c3noc(C(C)C)n3)c(OC)n2)cc1` belongs 5.62 µM [rising, partial curve, poor fit]. On the same count and under the same terms, the figure for `Cc1cc(C)n(-c2cc(N3CCN(C(=O)c4cccc(Br)c4)CC3)ccc2[N+](=O)[O-])n1` is 20 µM [falling, partial curve, poor fit]. Consider `COC(=O)c1cccc(NC(=O)c2cc3ccccc3o2)c1`, for which, under setting [1], the AC50 is 15.8 µM [falling, partial curve, poor fit]. Turning to `Cc1cc(NC(=O)CSCC(=O)OCc2nnc(-c3ccccc3)o2)no1`, the AC50 under setting [1] is 0.316 µM [rising, full curve, poor fit].

Source of the values: PubChem BioAssay AID493014 (National Center for Advancing Translational Sciences (NCATS), 2011).
